Data reported in paper PMC10693564.
No constants are given. Whether binding was seen depends on the method and setting. Some results given as binding are weak or reduced against the parent protein; the word gives no strength.

Protein sequences, listed by entry. Tags and fused reporters are not part of them. Lines headed by an entry give the natural chain unless they say otherwise; changes in a name come on top. Chains listed by the source or under a name are the forms on record and can include a tag or linker.
fluorescent ISG15 (P05161, form named): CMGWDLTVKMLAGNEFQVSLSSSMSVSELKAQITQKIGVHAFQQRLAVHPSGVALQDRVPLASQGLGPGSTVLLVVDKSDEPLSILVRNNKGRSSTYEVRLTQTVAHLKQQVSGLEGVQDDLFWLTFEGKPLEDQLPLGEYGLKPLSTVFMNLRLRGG

Target: fluorescent ISG15 (UniProt P05161)
Test: fluorescence polarisation; both purified

B1: non-structural protein 1 of influenza B virus (NS1B) (protein, UniProt P03502 1-281)
chain: MADNMTTTQIEVGPGATNATINFEAGILECYERFSWQRALDYPGQDRLHRLKRKLESRIKTHNKSEPENKRMSLEERKAIGVKMMKVLLFMDPSAGIEGFEPYCVKNPSTSKCPNYDWTDYPPTPGKYLDDIEEEPENVDHPIEVVLRDMNNKDARQKIKDEVNTQKEGKFRLTIKRDIRNVLSLRVLVNGTFLKHPNGDKSLSTLHRLNAYDQNGGLVAKLVATDDRTVEDEKDGHRILNSLFERFDEGHSKPIRAAETAVGVLSQFGQEHRLSPEEGDN
B1 was tested, and the binding was “binds”.
